Literature values as cited in paper PMC8620791, “Inhibitory Effects of Sulfonamide Derivatives on the β-Carbonic Anhydrase (MpaCA) from Malassezia pachydermatis, a Commensal, Pathogenic Fungus Present in Domestic Animals” (International Journal of Molecular Sciences, 2021).
Values joined by “and” are separate entries in the source; they are usually repeats but may differ in a detail not shown here. Equal entries are not always repeated.

Columns and labels:
MreCA = molecular target: MreCA; design: method as in PMID 31963335; conditions: stopped-flow CO2 hydration; given for comparison; ref [26]; cited from earlier work
MgCA = molecular target: MgCA; design: method as in PMID 31963335; conditions: stopped-flow CO2 hydration; given for comparison; ref [26]; cited from earlier work

CCN[C@H]1C[C@H](C)S(=O)(=O)c2sc(S(N)(=O)=O)cc21 [DZA, Dorzolamide, reference compound]
Ki (MreCA): < 1000 nM and 810 nM
Ki (MgCA): > 10000 nM
